Measurements reported in PubChem BioAssay AID1224828 (NIAID, 2016)
Test: 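Knock-downs that increase or decrease LPS-induced p65 nuclear translocation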 (primary screen). Cell system: mouse RAW264.7 G9 macrophage reporter cells (GFP-p65, Tnf promoter-mCherry). Reagent: siRNA pool against mouse genes, 100 nM. Duration: 2 days siRNA transfection, then 40 min LPS before fixation. Treatment: LPS (Salmonella minnesota R595) at 10 ng/ml. Measurement: 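Imaged p65 nuclear translocation ratio, normalised to the plate median, converted to robust z-scores and averaged across two replicates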. Direction: p65 translocation robust z-score: higher = more nuclear NF-kappaB p65 after LPS than the plate median; nuclear/cytoplasmic p65 ratio: higher = more nuclear NF-kappaB p65. Active means: 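Active if robust z is above 3.3 (negative regulators) or below -1.56, the Tlr4 control median (positive regulators); activity score 50 or more; control wells not called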. Meaning of the calls: active = hit (p65 shift raised or lowered); inactive = no clear change.
The deposit covers about 17,000 reagents; shown is a part drawn at random. In the full data, 762 (4.5%) were called active. 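Active calls include both raised and lowered p65 entry, mostly lowered; wells with fewer than 50 cells lack a z-score.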 The raw values are shown without normalisation.

{"Target gene":"1700009J07Rik","PubChem SID":"SID315475083","nuclear/cytoplasmic p65 ratio, rep 1":1.47,"nuclear/cytoplasmic p65 ratio, rep 2":1.36,"low cell count flag":"fewer than 50 cells per well; well left out of scoring","outcome":"inactive"}
{"Target gene":"Or5h22","PubChem SID":"SID315480077","p65 translocation robust z-score":0.4,"nuclear/cytoplasmic p65 ratio, rep 1":1.67,"nuclear/cytoplasmic p65 ratio, rep 2":1.13,"low cell count flag":"enough cells to score","outcome":"inactive"}
{"Target gene":"Irx5","PubChem SID":"SID315471198","p65 translocation robust z-score":0.24,"nuclear/cytoplasmic p65 ratio, rep 1":1.56,"nuclear/cytoplasmic p65 ratio, rep 2":1.37,"low cell count flag":"enough cells to score","outcome":"inactive"}
{"Target gene":"Polr1g","PubChem SID":"SID315474014","p65 translocation robust z-score":-0.02,"nuclear/cytoplasmic p65 ratio, rep 1":1.4,"nuclear/cytoplasmic p65 ratio, rep 2":1.59,"low cell count flag":"enough cells to score","outcome":"inactive"}
{"Target gene":"Ankrd33b","PubChem SID":"SID315473021","p65 translocation robust z-score":1.14,"nuclear/cytoplasmic p65 ratio, rep 1":1.71,"nuclear/cytoplasmic p65 ratio, rep 2":1.59,"low cell count flag":"enough cells to score","outcome":"inactive"}
{"Target gene":"Sva","PubChem SID":"SID315469539","p65 translocation robust z-score":1.81,"nuclear/cytoplasmic p65 ratio, rep 1":1.69,"nuclear/cytoplasmic p65 ratio, rep 2":1.43,"low cell count flag":"enough cells to score","outcome":"inactive"}
{"Target gene":"Slc45a3","PubChem SID":"SID315477769","p65 translocation robust z-score":3.32,"nuclear/cytoplasmic p65 ratio, rep 1":1.78,"nuclear/cytoplasmic p65 ratio, rep 2":1.27,"low cell count flag":"enough cells to score","outcome":"active"}
{"Target gene":"Dedd2","PubChem SID":"SID315472987","p65 translocation robust z-score":-1.11,"nuclear/cytoplasmic p65 ratio, rep 1":1.35,"nuclear/cytoplasmic p65 ratio, rep 2":1.45,"low cell count flag":"enough cells to score","outcome":"inactive"}
{"Target gene":"Serp1","PubChem SID":"SID315470683","p65 translocation robust z-score":0.02,"nuclear/cytoplasmic p65 ratio, rep 1":1.55,"nuclear/cytoplasmic p65 ratio, rep 2":1.64,"low cell count flag":"enough cells to score","outcome":"inactive"}
{"Target gene":"Amn","PubChem SID":"SID315475975","p65 translocation robust z-score":0.09,"nuclear/cytoplasmic p65 ratio, rep 1":1.64,"nuclear/cytoplasmic p65 ratio, rep 2":1.63,"low cell count flag":"enough cells to score","outcome":"inactive"}
{"Target gene":"Nr4a1","PubChem SID":"SID315467233","p65 translocation robust z-score":-0.49,"nuclear/cytoplasmic p65 ratio, rep 1":1.4,"nuclear/cytoplasmic p65 ratio, rep 2":1.33,"low cell count flag":"enough cells to score","outcome":"inactive"}
{"Target gene":"Scamp3","PubChem SID":"SID315470293","p65 translocation robust z-score":2.69,"nuclear/cytoplasmic p65 ratio, rep 1":2.15,"nuclear/cytoplasmic p65 ratio, rep 2":1.65,"low cell count flag":"enough cells to score","outcome":"inactive"}
{"Target gene":"Acot11","PubChem SID":"SID315481555","p65 translocation robust z-score":-0.4,"nuclear/cytoplasmic p65 ratio, rep 1":1.46,"nuclear/cytoplasmic p65 ratio, rep 2":1.46,"low cell count flag":"enough cells to score","outcome":"inactive"}
{"Target gene":"Nucb1","PubChem SID":"SID315468269","p65 translocation robust z-score":0.14,"nuclear/cytoplasmic p65 ratio, rep 1":1.5,"nuclear/cytoplasmic p65 ratio, rep 2":1.4,"low cell count flag":"enough cells to score","outcome":"inactive"}
{"Target gene":"Spdl1","PubChem SID":"SID315474036","nuclear/cytoplasmic p65 ratio, rep 1":1.04,"nuclear/cytoplasmic p65 ratio, rep 2":1.23,"low cell count flag":"fewer than 50 cells per well; well left out of scoring","outcome":"inactive"}
{"Target gene":"Hsp90ab1","PubChem SID":"SID315467327","p65 translocation robust z-score":-0.74,"nuclear/cytoplasmic p65 ratio, rep 1":1.34,"nuclear/cytoplasmic p65 ratio, rep 2":1.28,"low cell count flag":"enough cells to score","outcome":"inactive"}
{"Target gene":"Abhd3","PubChem SID":"SID315476566","p65 translocation robust z-score":-0.87,"nuclear/cytoplasmic p65 ratio, rep 1":1.47,"nuclear/cytoplasmic p65 ratio, rep 2":1.5,"low cell count flag":"enough cells to score","outcome":"inactive"}
{"Target gene":"Nfkb2","PubChem SID":"SID315468157","p65 translocation robust z-score":1.83,"nuclear/cytoplasmic p65 ratio, rep 1":1.64,"nuclear/cytoplasmic p65 ratio, rep 2":1.7,"low cell count flag":"enough cells to score","outcome":"inactive"}
{"Target gene":"Dcaf8","PubChem SID":"SID315476119","p65 translocation robust z-score":0.42,"nuclear/cytoplasmic p65 ratio, rep 1":1.61,"nuclear/cytoplasmic p65 ratio, rep 2":1.63,"low cell count flag":"enough cells to score","outcome":"inactive"}
{"Target gene":"Crp","PubChem SID":"SID315466131","p65 translocation robust z-score":-0.44,"nuclear/cytoplasmic p65 ratio, rep 1":1.56,"nuclear/cytoplasmic p65 ratio, rep 2":1.66,"low cell count flag":"enough cells to score","outcome":"inactive"}
{"Target gene":"Igfbp4","PubChem SID":"SID315467412","p65 translocation robust z-score":0.93,"nuclear/cytoplasmic p65 ratio, rep 1":1.48,"nuclear/cytoplasmic p65 ratio, rep 2":1.56,"low cell count flag":"enough cells to score","outcome":"inactive"}

As entered above.
Value of Polr1g [SID315474014] under “outcome”: inactive
Dedd2 [SID315472987], p65 translocation robust z-score: -1.11
Entry for Irx5 [SID315471198] in “outcome”: inactive
